Reference: patent US20230023092A1, “TREATMENT OF DEPRESSION AND OTHER VARIOUS DISORDERS WITH PSILOCYBIN” (COMPASS […], priority 2019, published 2023)
“Also recorded” adds a separate entry of the source. At least one structure is not confirmed: it was looked up by name or label, or the drawing left a doubt.

Columns and labels:
Assay type in all cases: in vivo, human
healthy subjects [1] = test: CANTAB One Touch Stockings (OTSPSFC); conditions: 10 mg and 25 mg; Day 7
healthy subjects [2] = test: Life Changes Inventory (LCI)
Excerpt: In some embodiments, the Life Changes Inventory (LCI) questionnaire is utilized to evaluate the safety and/or efficacy of psilocybin. The LCI is designed as a questionnaire to investigate those variables present in the day-to-day experience of adults that might relate either to stability or decline of intellectual ability.
The following list of outcome measures are non-exhaustive. • a. The short-term change from Baseline (Day −1 [Visit 2]) to Day 7 (Visit 5) in cognitive measures of attention, spatial and working memory and executive function was measured by a composite score of the CANTAB Panel (Spatial Working Memory [SWM], Rapid Visual Information Processing [RVP], Paired Associates Learning [PAL]). • b. The short-term change from Baseline (Day −1 [Visit 2]) to Day 7 (Visit 5) in Social Cognition Panel scales (Pictorial Empathy Test [PET], Reading the Mind in the Eyes Test [RMET], Toronto Empathy Questionnaire [TEQ], Social Value Orientation [SVO], Scale of Social Responsibility [SSR]). • c. The change from Baseline (Day −1 [Visit 2]) to Day 28 (Visit 6) in cognitive measures of attention, spatial and working memory and executive function as measured by a composite score of the CANTAB Panel (SWM, RVP, PAL). • d. The long-term change from Baseline (Day −1 [Visit 2]) to Day 84 (Visit 7) in Social Cognition Panel scales (PET, RMET, TEQ, SVO, SSR). • e. Dose-related differences between cognitive effects of psilocybin at Baseline (Day −1 [Visit 2]), Day 7 (Visit 5) and Day 28 (Visit 6), as measured by a composite score of the CANTAB Panel (SWM, RVP, PAL). • f. Dose-related differences between psychological effects of psilocybin at Baseline (Day −1 [Visit 2]), Day 7 (Visit 5) and Day 84 (Visit 7), as measured by Social Cognition Panel scales (PET, RMET, TEQ, SVO, SSR). • g. Differences in cognitive effects of psilocybin between psilocybin-naïve and experienced subjects at Baseline (Day −1 [Visit 2]), Day 7 (Visit 5) and Day 28 (Visit 6), as measured by a composite score of the CANTAB Panel (SWM, RVP, PAL). • h. Differences in Positive and Negative Affect Schedule (PANAS) after study drug administration on Day 0 (Visit 3). • i. Differences between psilocybin and placebo in the Emotion Recognition Test (ERT), Intra-Extra Dimensional Set Shift (IED), One Touch Stockings (OTS), Verbal Fluency and Digit Span Forward at Day 7 (Visit 5). • j. A composite score of the CANTAB Panel, including the following tests: • i. Spatial Working Memory (SWM) (performed at Visit 2, Visit 5, and Visit 6). • ii. Rapid Visual Information Processing (RVP) (performed at Visit 2, Visit 5, and Visit 6). • iii. Paired Associates Learning (PAL) (performed at Visit 2, Visit 5, and Visit 6). • k. […] Reading the Mind in the Eyes Test (RMET) (performed at Visit 2, Visit 5, and Visit 7). • iii. […]

healthy subjects [3] = test: Five-Dimensional Altered States of Consciousness (5D-ASC) questionnaire
Excerpt: In some embodiments, the Five Dimension Altered States of Consciousness questionnaire (5D-ASC) is utilized to evaluate the safety and/or efficacy of psilocybin. […] The 5 dimensions include oceanic boundlessness, anxious ego dissolution, visionary restructuralization, auditory alterations and reduction of vigilance.

## CN(C)CCc1c[nH]c2cccc(OP(=O)(O)O)c12 [Psilocybin, psilocybin]
Healthy subjects [1]
  OTSPSFC difference versus placebo and between doses: insufficient evidence of a difference; also recorded: No significant difference in performance
Healthy subjects [2]; 10 mg and 25 mg
  LCI domains Religiousness and Appreciation of Death: unaffected
Healthy subjects [2]; 10 mg and 25 mg, Day 7 and Day 84
  LCI absolute change compared to placebo: higher absolute change in LCI compared to the placebo group; also recorded: increase
Healthy subjects [2]; 10 mg and 25 mg, p≤0.0028, p<0.0001, P≤0.0075, p<0.0139
  LCI domain scores Appreciation for Life, Self-Acceptance, Concern for Others, Quest for Meaning: increase
Healthy subjects [2]; either timepoint
  LCI domains, difference between dose effects (10 mg versus 25 mg): not statistically significant
Healthy subjects [3]; 10 mg and 25 mg, immediately post-treatment, p≤0.0001
  5D-ASC five primary dimensions compared to placebo: had an effect
Healthy subjects [3]; 10 mg and 25 mg, p≤0.0001
  5D-ASC 11 sub-scores compared to placebo: differences between each of the psilocybin dose groups and placebo were observed
Healthy subjects [3]; p≤0.001
  5D-ASC anxiety and complex imagery subscales, 25 mg versus 10 mg: higher mean value in the psilocybin 25 mg dose group
Healthy subjects [3]; p≤0.05
  5D-ASC Dread of Ego Dissolution and Auditory Alteration, 25 mg versus 10 mg: higher scores than the 10 mg psilocybin group
